From article PMC12658120 come the findings set out here.

Results are given in words; binding and its absence hold for the method and conditions named. Binding seen in cells or lysates may run through a third protein. Some binding calls cover weakened binding; strength is not graded here. Sequences can lack the tags named with a protein.

The target in assay [1] is T1, Flag-MCT1 (not stated (human or mouse cDNA cloned)) (UniProt P53985).
T1 sequence: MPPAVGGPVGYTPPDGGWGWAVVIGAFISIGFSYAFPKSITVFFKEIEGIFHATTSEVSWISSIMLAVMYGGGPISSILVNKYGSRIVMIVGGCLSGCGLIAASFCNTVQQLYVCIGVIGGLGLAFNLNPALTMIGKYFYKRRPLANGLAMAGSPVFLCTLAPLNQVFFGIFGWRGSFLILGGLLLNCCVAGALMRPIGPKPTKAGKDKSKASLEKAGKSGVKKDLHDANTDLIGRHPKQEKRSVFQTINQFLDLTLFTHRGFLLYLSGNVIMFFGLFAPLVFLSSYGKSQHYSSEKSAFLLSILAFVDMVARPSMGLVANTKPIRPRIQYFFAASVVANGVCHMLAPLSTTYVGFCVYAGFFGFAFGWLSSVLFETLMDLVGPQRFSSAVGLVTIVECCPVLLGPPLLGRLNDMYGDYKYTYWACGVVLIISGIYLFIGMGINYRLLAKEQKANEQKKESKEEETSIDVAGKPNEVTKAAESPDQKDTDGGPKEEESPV
Kind of assay: co-IP; HEK293T cells transfected with HA-RAB32 and Flag-MCT1/4, with or without Salmonella infection; whole-cell extracts incubated overnight with anti-Flag agarose, 5-6 washes with low-salt lysis buffer, blot with anti-HA and anti-Flag.

In assay [2] the target is T2, Flag-MCT4 (not stated (human or mouse cDNA cloned)) (UniProt O15427).
T2 sequence: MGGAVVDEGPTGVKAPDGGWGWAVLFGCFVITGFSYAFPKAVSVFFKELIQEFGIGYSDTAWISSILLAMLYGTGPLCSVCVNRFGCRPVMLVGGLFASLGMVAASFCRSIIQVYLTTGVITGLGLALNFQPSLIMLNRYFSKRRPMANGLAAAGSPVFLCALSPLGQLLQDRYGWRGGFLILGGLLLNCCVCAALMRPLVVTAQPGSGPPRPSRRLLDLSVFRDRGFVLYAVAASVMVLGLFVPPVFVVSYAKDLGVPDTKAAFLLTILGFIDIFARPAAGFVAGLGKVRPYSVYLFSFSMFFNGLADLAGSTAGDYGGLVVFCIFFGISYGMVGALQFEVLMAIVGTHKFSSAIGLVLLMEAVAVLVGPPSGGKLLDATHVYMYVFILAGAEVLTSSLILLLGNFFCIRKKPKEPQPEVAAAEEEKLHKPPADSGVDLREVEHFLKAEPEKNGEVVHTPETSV
The description is as above.

B1: HA-RAB32 (protein, UniProt Q13637 1-225)
chain: MAGGGAGDPGLGAAAAPAPETREHLFKVLVIGELGVGKTSIIKRYVHQLFSQHYRATIGVDFALKVLNWDSRTLVRLQLWDIAGQERFGNMTRVYYKEAVGAFVVFDISRSSTFEAVLKWKSDLDSKVHLPNGSPIPAVLLANKCDQNKDSSQSPSQVDQFCKEHGFAGWFETSAKDNINIEEAARFLVEKILVNHQSFPNEENDVDKIKLDQETLRAENKSQCC
In the case of B1, the binding result in assay [1] and in assay [2] was “binds” throughout.
